Our source for the binding values is paper PMC5382943.

No constants are given. Whether binding was seen depends on the method and setting. In cells and extracts the contact can be indirect. Binding calls can cover weak binding; strength is not graded here. Tags and fused reporters may be left off the sequences shown.

The target in experiment [1] is endogenous β-tubulin (human (endogenous in SHSY5Y)). Briefly: co-IP; whole protein extracts of doxycycline-induced SHSY5Y clones incubated with antibodies against β-tubulin or α-tubulin to precipitate the endogenous tubulin; western blot with anti-Flag.
The target in experiment [2] is endogenous α-tubulin (human (endogenous in SHSY5Y)). The description is as above.

B1: Flag-tagged full-length wild-type PRUNE (protein, UniProt Q86TP1-1 1-453)
chain: MEDYLQGCRAALQESRPLHVVLGNEACDLDSTVSALALAFYLAKTTEAEEVFVPVLNIKRSELPLRGDIVFFLQKVHIPESILIFRDEIDLHALYQAGQLTLILVDHHILSKSDTALEEAVAEVLDHRPIEPKHCPPCHVSVELVGSCATLVTERILQGAPEILDRQTAALLHGTIILDCVNMDLKIGKATPKDSKYVEKLEALFPDLPKRNDIFDSLQKAKFDVSGLTTEQMLRKDQKTIYRQGVKVAISAIYMDLEAFLQRSNLLADLHAFCQAHSYDVLVAMTIFFNTHNEPVRQLAIFCPHVALQTTICEVLERSHSPPLKLTPASSTHPNLHAYLQGNTQVSRKKLLPLLQEALSAYFDSMKIPSGQPETADVSREQVDKELDRASNSLISGLSQDEEDPPLPPTPMNSLVDECPLDQGLPKLSAEAVFEKCSQISLSQSTTASLSKK
B1: the binding entry in experiment [1] and in experiment [2] was “binds” throughout.
